Drawing on US20130347134A1, “TRANSGENIC VON WILLEBRAND FACTOR ANIMALS AND USES THEREOF” (priority 2012, published 2013), this text covers binding for three substances.

Amino acid sequences for entries named in this document (tags omitted). A change or cut given only in a name is not applied to a line headed by its entry. Residues count along the entry.
UniProt P02452: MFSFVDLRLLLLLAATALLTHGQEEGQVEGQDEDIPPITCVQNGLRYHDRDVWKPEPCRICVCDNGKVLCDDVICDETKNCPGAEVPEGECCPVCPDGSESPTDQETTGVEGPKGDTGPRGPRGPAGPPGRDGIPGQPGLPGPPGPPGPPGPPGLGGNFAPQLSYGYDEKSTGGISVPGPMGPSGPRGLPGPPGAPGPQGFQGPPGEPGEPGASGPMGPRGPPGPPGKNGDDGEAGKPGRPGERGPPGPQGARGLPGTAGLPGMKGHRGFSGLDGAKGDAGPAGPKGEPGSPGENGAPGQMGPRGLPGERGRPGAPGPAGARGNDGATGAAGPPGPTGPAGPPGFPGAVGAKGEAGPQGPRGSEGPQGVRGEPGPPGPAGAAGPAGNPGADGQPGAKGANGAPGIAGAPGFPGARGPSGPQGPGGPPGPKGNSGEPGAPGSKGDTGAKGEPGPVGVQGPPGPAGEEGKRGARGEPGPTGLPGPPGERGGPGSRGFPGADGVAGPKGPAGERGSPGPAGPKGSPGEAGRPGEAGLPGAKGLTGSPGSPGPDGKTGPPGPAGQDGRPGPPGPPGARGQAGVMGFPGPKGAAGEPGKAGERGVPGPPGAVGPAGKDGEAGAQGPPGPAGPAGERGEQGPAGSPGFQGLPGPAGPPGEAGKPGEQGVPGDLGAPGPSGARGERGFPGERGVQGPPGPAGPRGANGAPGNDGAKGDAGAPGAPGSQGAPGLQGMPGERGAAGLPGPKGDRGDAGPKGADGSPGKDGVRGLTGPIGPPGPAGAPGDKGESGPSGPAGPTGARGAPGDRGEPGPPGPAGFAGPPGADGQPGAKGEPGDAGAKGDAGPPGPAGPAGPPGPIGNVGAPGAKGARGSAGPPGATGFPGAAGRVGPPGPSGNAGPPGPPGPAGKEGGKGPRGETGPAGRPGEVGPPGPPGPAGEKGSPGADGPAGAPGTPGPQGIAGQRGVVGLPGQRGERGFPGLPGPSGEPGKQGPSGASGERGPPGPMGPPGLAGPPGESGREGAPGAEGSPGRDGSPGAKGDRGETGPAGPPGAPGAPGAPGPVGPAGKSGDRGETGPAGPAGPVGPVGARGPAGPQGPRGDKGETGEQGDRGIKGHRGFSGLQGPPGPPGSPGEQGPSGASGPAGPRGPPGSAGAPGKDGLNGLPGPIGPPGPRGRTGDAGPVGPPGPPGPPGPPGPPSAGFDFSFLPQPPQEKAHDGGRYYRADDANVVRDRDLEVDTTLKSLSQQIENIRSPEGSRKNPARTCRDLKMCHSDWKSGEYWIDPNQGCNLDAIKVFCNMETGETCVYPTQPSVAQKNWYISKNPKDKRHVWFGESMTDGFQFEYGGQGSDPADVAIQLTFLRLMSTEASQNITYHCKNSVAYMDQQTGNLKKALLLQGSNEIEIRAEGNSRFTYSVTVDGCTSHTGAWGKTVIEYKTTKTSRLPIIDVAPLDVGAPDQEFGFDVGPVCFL
UniProt P08123: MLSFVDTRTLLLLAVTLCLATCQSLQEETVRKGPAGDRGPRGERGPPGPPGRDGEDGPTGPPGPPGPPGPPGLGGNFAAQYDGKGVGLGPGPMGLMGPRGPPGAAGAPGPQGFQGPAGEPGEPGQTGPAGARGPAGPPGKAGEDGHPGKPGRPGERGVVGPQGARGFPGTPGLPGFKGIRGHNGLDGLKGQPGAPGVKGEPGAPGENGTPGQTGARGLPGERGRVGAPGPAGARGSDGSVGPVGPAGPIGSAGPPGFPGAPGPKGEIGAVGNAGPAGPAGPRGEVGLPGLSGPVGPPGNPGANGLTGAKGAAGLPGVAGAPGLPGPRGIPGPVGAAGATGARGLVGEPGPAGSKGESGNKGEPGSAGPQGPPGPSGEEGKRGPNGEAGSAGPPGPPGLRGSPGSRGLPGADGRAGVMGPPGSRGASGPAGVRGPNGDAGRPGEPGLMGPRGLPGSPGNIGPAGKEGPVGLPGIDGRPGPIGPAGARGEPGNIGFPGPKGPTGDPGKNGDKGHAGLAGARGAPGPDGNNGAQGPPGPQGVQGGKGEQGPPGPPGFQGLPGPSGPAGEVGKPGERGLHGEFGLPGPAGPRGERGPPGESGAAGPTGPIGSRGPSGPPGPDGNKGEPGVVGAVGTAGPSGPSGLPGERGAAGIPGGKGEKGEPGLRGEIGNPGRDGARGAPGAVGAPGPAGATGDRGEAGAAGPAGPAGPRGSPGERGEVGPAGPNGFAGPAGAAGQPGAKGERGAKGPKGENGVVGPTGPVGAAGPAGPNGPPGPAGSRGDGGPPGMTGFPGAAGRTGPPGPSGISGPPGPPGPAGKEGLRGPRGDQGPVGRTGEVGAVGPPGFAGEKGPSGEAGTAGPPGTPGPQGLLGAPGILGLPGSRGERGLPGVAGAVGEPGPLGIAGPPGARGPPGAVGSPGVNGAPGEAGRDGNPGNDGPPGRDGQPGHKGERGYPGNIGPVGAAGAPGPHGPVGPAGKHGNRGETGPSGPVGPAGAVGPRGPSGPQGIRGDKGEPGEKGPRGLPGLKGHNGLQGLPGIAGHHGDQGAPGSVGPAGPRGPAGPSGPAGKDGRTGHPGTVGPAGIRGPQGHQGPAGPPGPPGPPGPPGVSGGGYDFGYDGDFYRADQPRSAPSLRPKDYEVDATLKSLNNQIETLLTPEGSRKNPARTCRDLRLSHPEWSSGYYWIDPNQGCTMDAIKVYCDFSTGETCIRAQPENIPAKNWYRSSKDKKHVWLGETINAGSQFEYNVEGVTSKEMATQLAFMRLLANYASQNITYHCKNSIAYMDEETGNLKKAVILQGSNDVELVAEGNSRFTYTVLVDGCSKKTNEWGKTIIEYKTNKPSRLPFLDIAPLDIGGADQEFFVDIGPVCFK
UniProt O35930, residues 17-734: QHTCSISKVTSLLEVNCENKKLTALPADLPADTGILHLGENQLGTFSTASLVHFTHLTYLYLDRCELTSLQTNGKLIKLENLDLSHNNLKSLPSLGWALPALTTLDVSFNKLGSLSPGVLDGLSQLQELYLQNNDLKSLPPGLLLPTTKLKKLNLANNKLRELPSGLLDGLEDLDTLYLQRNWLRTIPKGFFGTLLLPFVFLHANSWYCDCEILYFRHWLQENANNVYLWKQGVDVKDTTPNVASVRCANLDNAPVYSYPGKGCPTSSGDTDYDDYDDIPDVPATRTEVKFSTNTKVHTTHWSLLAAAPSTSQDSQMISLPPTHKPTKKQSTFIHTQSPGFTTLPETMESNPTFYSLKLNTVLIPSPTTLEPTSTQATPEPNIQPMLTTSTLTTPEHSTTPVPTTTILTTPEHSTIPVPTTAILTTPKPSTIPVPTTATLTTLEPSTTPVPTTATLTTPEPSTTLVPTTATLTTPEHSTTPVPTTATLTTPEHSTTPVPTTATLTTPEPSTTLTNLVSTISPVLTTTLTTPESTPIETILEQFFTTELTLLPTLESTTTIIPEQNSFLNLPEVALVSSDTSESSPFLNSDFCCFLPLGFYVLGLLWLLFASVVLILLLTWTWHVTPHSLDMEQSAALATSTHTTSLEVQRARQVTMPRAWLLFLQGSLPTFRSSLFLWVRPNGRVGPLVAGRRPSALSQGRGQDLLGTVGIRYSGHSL
UniProt P04275: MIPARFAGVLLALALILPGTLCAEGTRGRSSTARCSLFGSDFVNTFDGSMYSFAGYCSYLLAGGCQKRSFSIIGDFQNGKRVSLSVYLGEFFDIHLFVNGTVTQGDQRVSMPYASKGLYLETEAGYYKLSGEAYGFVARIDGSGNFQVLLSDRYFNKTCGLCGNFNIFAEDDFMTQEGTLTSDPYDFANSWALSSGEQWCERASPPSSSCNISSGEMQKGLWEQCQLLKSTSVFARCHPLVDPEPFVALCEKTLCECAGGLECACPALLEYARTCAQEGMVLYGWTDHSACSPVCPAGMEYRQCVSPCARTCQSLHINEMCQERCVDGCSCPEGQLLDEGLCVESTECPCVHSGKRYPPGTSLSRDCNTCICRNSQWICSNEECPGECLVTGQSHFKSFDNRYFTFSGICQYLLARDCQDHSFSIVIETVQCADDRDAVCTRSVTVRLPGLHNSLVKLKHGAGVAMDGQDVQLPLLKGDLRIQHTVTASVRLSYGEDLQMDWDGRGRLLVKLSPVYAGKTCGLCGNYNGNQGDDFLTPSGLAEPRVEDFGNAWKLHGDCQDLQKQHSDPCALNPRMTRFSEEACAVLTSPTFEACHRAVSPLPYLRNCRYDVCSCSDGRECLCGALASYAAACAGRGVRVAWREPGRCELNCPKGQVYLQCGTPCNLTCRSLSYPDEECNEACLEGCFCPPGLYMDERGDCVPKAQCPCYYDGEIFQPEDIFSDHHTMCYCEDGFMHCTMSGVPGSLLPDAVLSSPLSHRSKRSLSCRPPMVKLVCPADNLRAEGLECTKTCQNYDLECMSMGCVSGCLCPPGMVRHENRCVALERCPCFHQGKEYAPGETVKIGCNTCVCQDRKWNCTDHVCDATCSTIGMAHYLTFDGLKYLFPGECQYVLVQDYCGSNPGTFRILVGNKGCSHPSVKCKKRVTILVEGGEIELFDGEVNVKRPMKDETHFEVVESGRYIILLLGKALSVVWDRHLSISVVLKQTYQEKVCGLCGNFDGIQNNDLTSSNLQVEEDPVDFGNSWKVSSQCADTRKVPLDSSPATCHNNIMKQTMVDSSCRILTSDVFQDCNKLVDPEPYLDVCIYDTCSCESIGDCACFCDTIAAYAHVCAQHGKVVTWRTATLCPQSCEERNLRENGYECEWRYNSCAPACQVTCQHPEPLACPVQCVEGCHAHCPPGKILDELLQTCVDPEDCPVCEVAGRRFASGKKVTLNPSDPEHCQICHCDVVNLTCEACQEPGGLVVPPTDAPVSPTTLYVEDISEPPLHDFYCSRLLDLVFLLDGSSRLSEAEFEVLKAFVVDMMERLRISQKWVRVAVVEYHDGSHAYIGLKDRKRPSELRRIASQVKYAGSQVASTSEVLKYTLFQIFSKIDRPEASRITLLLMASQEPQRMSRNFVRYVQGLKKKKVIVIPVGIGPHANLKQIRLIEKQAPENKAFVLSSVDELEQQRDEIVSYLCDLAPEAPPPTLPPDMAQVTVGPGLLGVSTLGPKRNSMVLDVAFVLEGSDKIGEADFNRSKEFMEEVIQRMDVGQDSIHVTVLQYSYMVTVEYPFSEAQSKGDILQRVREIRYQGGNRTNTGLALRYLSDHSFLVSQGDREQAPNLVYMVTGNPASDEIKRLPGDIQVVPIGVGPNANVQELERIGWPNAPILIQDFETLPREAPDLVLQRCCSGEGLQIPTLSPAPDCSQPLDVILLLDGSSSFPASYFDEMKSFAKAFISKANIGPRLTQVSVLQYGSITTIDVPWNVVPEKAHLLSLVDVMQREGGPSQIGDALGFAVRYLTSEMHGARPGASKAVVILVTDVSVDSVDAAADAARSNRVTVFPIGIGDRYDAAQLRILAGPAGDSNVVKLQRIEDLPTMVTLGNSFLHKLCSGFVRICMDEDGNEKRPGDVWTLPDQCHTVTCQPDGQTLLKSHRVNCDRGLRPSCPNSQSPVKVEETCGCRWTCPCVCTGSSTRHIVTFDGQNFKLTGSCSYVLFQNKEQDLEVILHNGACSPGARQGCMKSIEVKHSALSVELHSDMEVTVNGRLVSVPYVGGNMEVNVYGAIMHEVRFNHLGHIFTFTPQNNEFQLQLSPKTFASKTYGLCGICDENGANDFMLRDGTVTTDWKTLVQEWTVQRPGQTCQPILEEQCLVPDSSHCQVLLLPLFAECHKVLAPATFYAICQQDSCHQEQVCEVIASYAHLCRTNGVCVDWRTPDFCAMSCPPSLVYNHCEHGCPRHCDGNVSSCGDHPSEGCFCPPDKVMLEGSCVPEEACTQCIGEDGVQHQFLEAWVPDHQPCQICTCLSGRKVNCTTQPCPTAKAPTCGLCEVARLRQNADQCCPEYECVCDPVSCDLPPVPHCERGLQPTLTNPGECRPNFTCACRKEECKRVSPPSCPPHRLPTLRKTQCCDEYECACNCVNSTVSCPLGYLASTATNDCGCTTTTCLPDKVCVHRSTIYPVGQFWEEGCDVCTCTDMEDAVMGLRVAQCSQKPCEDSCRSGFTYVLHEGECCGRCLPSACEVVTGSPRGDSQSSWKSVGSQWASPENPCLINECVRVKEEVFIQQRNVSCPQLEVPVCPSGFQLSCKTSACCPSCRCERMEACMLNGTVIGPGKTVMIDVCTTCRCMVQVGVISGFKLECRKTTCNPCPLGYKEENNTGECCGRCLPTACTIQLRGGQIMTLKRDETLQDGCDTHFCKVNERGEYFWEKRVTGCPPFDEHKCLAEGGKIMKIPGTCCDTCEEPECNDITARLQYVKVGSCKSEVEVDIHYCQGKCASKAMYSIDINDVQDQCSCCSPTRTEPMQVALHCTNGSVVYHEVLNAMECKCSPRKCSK

Results are given in words; binding and its absence hold for the method and conditions named. Some results given as binding are weak or reduced against the parent protein; the word gives no strength.

In experiment [1] the target is T1, acid soluble type I collagen from human placenta (human) (UniProt P02452+P08123). Briefly: ELISA of plasma VWF bound to immobilized type I collagen.
The target of experiment [2] is T1, acid soluble type I collagen from human placenta (human). As to the kind of experiment: ELISA: mouse platelet poor plasma added to wells coated with type I collagen, bound VWF detected (OD) [panel E].
The target in experiment [3] is murine platelet glycoprotein Ib alpha (GPIb α) on mouse platelets (mouse) (UniProt O35930). Briefly: murine platelets perfused over coverslips coated with VWF-A1, 800 s-1.

For the substance “murine plasma von Willebrand factor (VWF), wild type (from UniProt Q8CIZ8 764-2813) (ligand)”, the binding result in experiment [1] and in experiment [2] was “binds” each time.
Turning to “recombinant wild-type human VWF-A1 protein (residues 1238 to 1472), Examples 1-2 (from UniProt P04275 1238-1471) (ligand)”, the binding result in experiment [3] is recorded as “no binding (tested: 100 µg/ml coating)”.
Consider “murine plasma VWF containing the 1326R>H mutation (VWF^1326R>H) (from UniProt Q8CIZ8 764-2813) (ligand)”, for which the binding entry in experiment [1] and in experiment [2] was “binds” throughout.
